# Reference: US20250283871A1, “COMPOSITIONS AND METHODS FOR MODULATING THE INTERACTION BETWEEN SS18-SSX FUSION ONCOPROTEIN AND NUCLEOSOMES” (Dana-Farber Cancer Institute, Inc., priority 2020, published 2025)
# B1: SMC3 (protein, UniProt Q9UQE7 1-1217, looked up)
# Structural maintenance of …: MYIKQVIIQGFRSYRDQTIVDPFSSKHNVIVGRNGSGKSNFFYAIQFVLSDEFSHLRPEQRLALLHEGTGPRVISAFVEIIFDNSDNRLPIDKEEVSLRRVIGAKKDQYFLDKKMVTKNDVMNLLESAGFSRSNPYYIVKQGKINQMATAPDSQRLKLLREVAGTRVYDERKEESISLMKETEGKREKINELLKYIEERLHTLEEEKEELAQYQKWDKMRRALEYTIYNQELNETRAKLDELSAKRETSGEKSRQLRDAQQDARDKMEDIERQVRELKTKISAMKEEKEQLSAERQEQIKQRTKLELKAKDLQDELAGNSEQRKRLLKERQKLLEKIEEKQKELAETEPKFNSVKEKEERGIARLAQATQERTDLYAKQGRGSQFTSKEERDKWIKKELKSLDQAINDKKRQIAAIHKDLEDTEANKEKNLEQYNKLDQDLNEVKARVEELDRKYYEVKNKKDELQSERNYLWREENAEQQALAAKREDLEKKQQLLRAATGKAILNGIDSINKVLDHFRRKGINQHVQNGYHGIVMNNFECEPAFYTCVEVTAGNRLFYHIVDSDEVSTKILMEFNKMNLPGEVTFLPLNKLDVRDTAYPETNDAIPMISKLRYNPRFDKAFKHVFGKTLICRSMEVSTQLARAFTMDCITLEGDQVSHRGALTGGYYDTRKSRLELQKDVRKAEEELGELEAKLNENLRRNIERINNEIDQLMNQMQQIETQQRKFKASRDSILSEMKMLKEKRQQSEKTFMPKQRSLQSLEASLHAMESTRESLKAELGTDLLSQLSLEDQKRVDALNDEIRQLQQENRQLLNERIKLEGIITRVETYLNENLRKRLDQVEQELNELRETEGGTVLTATTSELEAINKRVKDTMARSEDLDNSIDKTEAGIKELQKSMERWKNMEKEHMDAINHDTKELEKMTNRQGMLLKKKEECMKKIRELGSLPQEAFEKYQTLSLKQLFRKLEQCNTELKKYSHVNKKALDQFVNFSEQKEKLIKRQEELDRGYKSIMELMNVLELRKYEAIQLTFKQVSKNFSEVFQKLVPGGKATLVMKKGDVEGSQSQDEGEGSGESERGSGSQSSVPSVDQFTGVGIRVSFTGKQGEMREMQQLSGGQKSLVALALIFAIQKCDPAPFYLFDEIDQALDAQHRKAVSDMIMELAVHAQFITTTFRPELLESADKFYGVKFRNKVSHIDVITAEMAKDFVEDDTTHG
# B2: ADAR (protein, UniProt P55265 1-1226, looked up)
# Double-stranded RNA-specific …: MNPRQGYSLSGYYTHPFQGYEHRQLRYQQPGPGSSPSSFLLKQIEFLKGQLPEAPVIGKQTPSLPPSLPGLRPRFPVLLASSTRGRQVDIRGVPRGVHLRSQGLQRGFQHPSPRGRSLPQRGVDCLSSHFQELSIYQDQEQRILKFLEELGEGKATTAHDLSGKLGTPKKEINRVLYSLAKKGKLQKEAGTPPLWKIAVSTQAWNQHSGVVRPDGHSQGAPNSDPSLEPEDRNSTSVSEDLLEPFIAVSAQAWNQHSGVVRPDSHSQGSPNSDPGLEPEDSNSTSALEDPLEFLDMAEIKEKICDYLFNVSDSSALNLAKNIGLTKARDINAVLIDMERQGDVYRQGTTPPIWHLTDKKRERMQIKRNTNSVPETAPAAIPETKRNAEFLTCNIPTSNASNNMVTTEKVENGQEPVIKLENRQEARPEPARLKPPVHYNGPSKAGYVDFENGQWATDDIPDDLNSIRAAPGEFRAIMEMPSFYSHGLPRCSPYKKLTECQLKNPISGLLEYAQFASQTCEFNMIEQSGPPHEPRFKFQVVINGREFPPAEAGSKKVAKQDAAMKAMTILLEEAKAKDSGKSEESSHYSTEKESEKTAESQTPTPSATSFFSGKSPVTTLLECMHKLGNSCEFRLLSKEGPAHEPKFQYCVAVGAQTFPSVSAPSKKVAKQMAAEEAMKALHGEATNSMASDNQPEGMISESLDNLESMMPNKVRKIGELVRYLNTNPVGGLLEYARSHGFAAEFKLVDQSGPPHEPKFVYQAKVGGRWFPAVCAHSKKQGKQEAADAALRVLIGENEKAERMGFTEVTPVTGASLRRTMLLLSRSPEAQPKTLPLTGSTFHDQIAMLSHRCFNTLTNSFQPSLLGRKILAAIIMKKDSEDMGVVVSLGTGNRCVKGDSLSLKGETVNDCHAEIISRRGFIRFLYSELMKYNSQTAKDSIFEPAKGGEKLQIKKTVSFHLYISTAPCGDGALFDKSCSDRAMESTESRHYPVFENPKQGKLRTKVENGEGTIPVESSDIVPTWDGIRLGERLRTMSCSDKILRWNVLGLQGALLTHFLQPIYLKSVTLGYLFSQGHLTRAICCRVTRDGSAFEDGLRHPFIVNHPKVGRVSIYDSKRQSGKTKETSVNWCLADGYDLEILDGTRGTVDGPRNELSRVSKKNIFLLFKKLCSFRYRRDLLRLSYGEAKKAARDYETAKNYFKKGLKDMGYGNWISKPQEEKNFYLCPV
# B3: PRPF40A (protein, UniProt O75400 1-957, looked up)
# Pre-mRNA-processing factor 40 …: MRPGTGAERGGLMVSEMESHPPSQGPGDGERRLSGSSLCSGSWVSADGFLRRRPSMGHPGMHYAPMGMHPMGQRANMPPVPHGMMPQMMPPMGGPPMGQMPGMMSSVMPGMMMSHMSQASMQPALPPGVNSMDVAAGTASGAKSMWTEHKSPDGRTYYYNTETKQSTWEKPDDLKTPAEQLLSKCPWKEYKSDSGKPYYYNSQTKESRWAKPKELEDLEGYQNTIVAGSLITKSNLHAMIKAEESSKQEECTTTSTAPVPTTEIPTTMSTMAAAEAAAAVVAAAAAAAAAAAAANANASTSASNTVSGTVPVVPEPEVTSIVATVVDNENTVTISTEEQAQLTSTPAIQDQSVEVSSNTGEETSKQETVADFTPKKEEEESQPAKKTYTWNTKEEAKQAFKELLKEKRVPSNASWEQAMKMIINDPRYSALAKLSEKKQAFNAYKVQTEKEEKEEARSKYKEAKESFQRFLENHEKMTSTTRYKKAEQMFGEMEVWNAISERDRLEIYEDVLFFLSKKEKEQAKQLRKRNWEALKNILDNMANVTYSTTWSEAQQYLMDNPTFAEDEELQNMDKEDALICFEEHIRALEKEEEEEKQKSLLRERRRQRKNRESFQIFLDELHEHGQLHSMSSWMELYPTISSDIRFTNMLGQPGSTALDLFKFYVEDLKARYHDEKKIIKDILKDKGFVVEVNTTFEDFVAIISSTKRSTTLDAGNIKLAFNSLLEKAEAREREREKEEARKMKRKESAFKSMLKQAAPPIELDAVWEDIRERFVKEPAFEDITLESERKRIFKDFMHVLEHECQHHHSKNKKHSKKSKKHHRKRSRSRSGSDSDDDDSHSKKKRQRSESRSASEHSSSAESERSYKKSKKHKKKSKKRRHKSDSPESDAEREKDKKEKDRESEKDRTRQRSESKHKSPKKKTGKDSGNWDTSGSELSEGELEKRRRTLLEQLDDDQ
# B4: EEF1A1 (protein, UniProt P68104 2-462, looked up)
# Elongation factor 1-alpha 1: GKEKTHINIVVIGHVDSGKSTTTGHLIYKCGGIDKRTIEKFEKEAAEMGKGSFKYAWVLDKLKAERERGITIDISLWKFETSKYYVTIIDAPGHRDFIKNMITGTSQADCAVLIVAAGVGEFEAGISKNGQTREHALLAYTLGVKQLIVGVNKMDSTEPPYSQKRYEEIVKEVSTYIKKIGYNPDTVAFVPISGWNGDNMLEPSANMPWFKGWKVTRKDGNASGTTLLEALDCILPPTRPTDKPLRLPLQDVYKIGGIGTVPVGRVETGVLKPGMVVTFAPVNVTTEVKSVEMHHEALSEALPGDNVGFNVKNVSVKDVRRGNVAGDSKNDPPMEAAGFTAQVIILNHPGQISAGYAPVLDCHTAHIACKFAELKEKIDRRSGKKLEDGPKFLKSGDAAIVDMVPGKPMCVESFSDYPPLGRFAVRDMRQTVAVGVIKAVDKKAAGAGKVTKSAQKAQKAK
# B5: LCOR (protein, UniProt Q96JN0 1-433, looked up)
# Ligand-dependent corepressor: MQRMIQQFAAEYTSKNSSTQDPSQPNSTKNQSLPKASPVTTSPTAATTQNPVLSKLLMADQDSPLDLTVRKSQSEPSEQDGVLDLSTKKSPCAGSTSLSHSPGCSSTQGNGRPGRPSQYRPDGLRSGDGVPPRSLQDGTREGFGHSTSLKVPLARSLQISEELLSRNQLSTAASLGPSGLQNHGQHLILSREASWAKPHYEFNLSRMKFRGNGALSNISDLPFLAENSAFPKMALQAKQDGKKDVSHSSPVDLKIPQVRGMDLSWESRTGDQYSYSSLVMGSQTESALSKKLRAILPKQSRKSMLDAGPDSWGSDAEQSTSGQPYPTSDQEGDPGSKQPRKKRGRYRQYNSEILEEAISVVMSGKMSVSKAQSIYGIPHSTLEYKVKERLGTLKNPPKKKMKLMRSEGPDVSVKIELDPQGEAAQSANESKNE
# B6: U2AF2 (protein, UniProt P26368 2-475, looked up)
# Splicing factor U2AF 65 kDa …: SDFDEFERQLNENKQERDKENRHRKRSHSRSRSRDRKRRSRSRDRRNRDQRSASRDRRRRSKPLTRGAKEEHGGLIRSPRHEKKKKVRKYWDVPPPGFEHITPMQYKAMQAAGQIPATALLPTMTPDGLAVTPTPVPVVGSQMTRQARRLYVGNIPFGITEEAMMDFFNAQMRLGGLTQAPGNPVLAVQINQDKNFAFLEFRSVDETTQAMAFDGIIFQGQSLKIRRPHDYQPLPGMSENPSVYVPGVVSTVVPDSAHKLFIGGLPNYLNDDQVKELLTSFGPLKAFNLVKDSATGLSKGYAFCEYVDINVTDQAIAGLNGMQLGDKKLLVQRASVGAKNATLVSPPSTINQTPVTLQVPGLMSSQVQMGGHPTEVLCLMNMVLPEELLDDEEYEEIVEDVRDECSKYGLVKSIEIPRPVDGVEVPGCGKIFVEFTSVFDCQKAMQGLTGRKFANRVVVTKYCDPDSYHRRDFW
# System: BAF complex subunits and histone proteins
# Experiment: Mass spectrometry proteomics of purified HA-SS18 WT and HA-SS18-SSX1 complexes (Tables 5A-5E)
# Design: species or system human
# Conditions: HA-SS18SSX1_CHR_peptides: protein identified in the HA-SS18-SSX1 purification from solubilized chromatin (CHR), HEK-293T
Molecule,Total (total peptides),Unique (unique peptides)
B1,5,5
B2,5,5
B3,5,5
B4,5,5
B5,5,5
B6,5,5

# Same assay, conditions: HA-SS18SSX1_NE_peptides: protein co-purified with HA-SS18-SSX1 BAF complexes from soluble nuclear extract (NE), HEK-293T cells
Molecule,Total (peptides),Unique (peptides)
B2,2,2

# Same assay, conditions: HA-SS18SSX1 purification, NE (soluble nuclear extract) fraction, HEK-293T; peptides per identified protein
Molecule,Total (total peptides),Unique (unique peptides)
B1,3,3
B3,4,4
B4,19,9
B6,4,4

# Same assay, conditions: HA-SS18WT_CHR_peptides: HA-SS18 WT purification from nuclease-treated solubilized chromatin (CHR), HEK-293T; label = protein identified
Molecule,Total (peptides),Unique (peptides)
B1,14,13
B2,8,8
B3,4,4
B4,3,3
B5,3,3

# Same assay, conditions: HA-SS18WT_CHR_peptides: protein identified in HA-SS18 WT BAF complex purification from nuclease-treated solubilized chromatin (CHR), HEK-293T
Molecule,Total (total peptides),Unique (unique peptides)
B6,1,1

# Same assay, conditions: HA-SS18WT_NE_peptides: HA-SS18 WT complexes purified from nuclear extract (NE), HEK-293T; label = protein identified (Gene Symbol)
Molecule,Total (peptides),Unique (peptides)
B3,3,3
B4,20,9
B6,6,6

# Same assay, conditions: HA-SS18WT_NE_peptides: proteins co-purified with HA-SS18 WT from nuclear extract (NE), HEK-293T
Molecule,Total (peptides),Unique (peptides)
B2,1,1
